# Results: patent publication US20170022287A1
# Protein sequences, listed by entry. Tags and fused reporters are not part of them. Residues count along the entry.
# UniProt Q07011, residues 24-186: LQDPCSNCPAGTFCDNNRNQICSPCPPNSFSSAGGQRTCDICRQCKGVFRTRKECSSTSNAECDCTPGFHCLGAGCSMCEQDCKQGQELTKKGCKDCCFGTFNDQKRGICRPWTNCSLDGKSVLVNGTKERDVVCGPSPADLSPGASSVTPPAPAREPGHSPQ
# These are yes or no findings as the source states them, for the method shown. Some results given as binding are weak or reduced against the parent protein; the word gives no strength.
# Target: biotinylated human CD137 (human) (UniProt Q07011)
# Test: phage ELISA, biotinylated human CD137 on StreptaWell plates
row,Binder,binding
1,"R7 (antibody, V domains shown) VH: QVQLLESGGGLVQPGGSLRLSCAASGFTFSSYAMSWVRQAPGKGLEWVSAISGSGGSTYYADSVKGRFTISRDNSKNTLYLQMNSLRAEDTAVYYCARDRAMYHPSFNYWGQGTLVTVSS VL: DIQMTQSPSSLSASVGDRVTITCRASQSISSYLNWYQQKPGKAPKLLIYAASSLQSGVPSRFSGSGSGTDFTLTISSLQPEDFATYYCQQFNSYPLTFGGGTKVEIK",binds
2,"R1 (antibody, V domains shown) VH: EVQLVQSGAEVKKPGASVKVSCKASGYTFTSYYTHWVRQAPGQGLEWMGIINPSGGSTSYAQKFQGRVTMTRDTSTSTVYMELSSLRSEDTAVYYCARGAPEYSSSSDYWGQGTMVTVSS VL: QSALTQPASVSGSPGQSITISCTGTSSDVGGYNYVSWYQQHPGKAPKLMIYDVSNRPSGVSNRFSGSKSGNTASLTISGLQAEDEADYYCSSYTSSSTRWVFGGGTKLTVL",binds
3,"R3 (antibody, V domains shown) VH: EVQLVQSGAEVKKPGASVKVSCKASGYTFTSYYTHWVRQAPGQGLEWMGIINPSGGSTSYAQKFQGRVTMTRDTSTSTVYMELSSLRSEDTAVYYCARGAPEYSSSSDYWGQGTMVTVSS VL: QSALTQPASVSGSPGQSITISCTGTSSDVGGYNFVSWYQQHPGKAPKLMIYDVSKRPSGVSTRFSGSKSGNTASLTISGLQAEDEADYYCNSYTTSSTRWMFGGGTKVTVL",binds
4,"R4 (antibody, V domains shown) VH: EVQLVQSGAEVKKPGASVKVSCKASGYTFSGYYMHWVRQAPGQGLEWMGWINPNSGDTNYAQNFQGRVTMTRDTSISTAYMELSRLRSDDTAVYYCARDGTGYSSSPDYWGQGTPVTVSS VL: QSALTQPASVSGSPGQSITISCTGTSSDVGGYNYVSWYQQHPGKAPKLMIYDVSNRPSGVSNRFSGSKSGNTASLTISGLQAEDEADYYCSSYTSSSTRWVFGGGTKLTVL",binds
5,"R2 (antibody, V domains shown) VH: EVQLQESGPGLVKPSETLSLTCTVSGGSISSSSYYWGWIRQPPGKGLEWIGSIHYTGSTYYNPSLKSRVTISVDTSKNQFSLKLSSVTAADTAVYYCARLNPSIAARPGAFDIWGQGTMVTVSS VL: QSVLTQPPSVSAAPGQKVTISCSGSSSNIANNFVSWFQQLPGTAPKLLIYDNNKRPSGIPDRFSGSKSGTSATLGITGLQTGDEADYYCGTWDRSLSAGVFGGGTKVTVL",binds

# Continued, values first:
row,binding,Binder
1,binds,"R14 (antibody, V domains shown) VH: QVQLLESGGGLVQPGGSLRLSCAASGFTFSSYAMSWVRQAPGKGLEWVSAISGSGGSTYYADSVKGRFTISRDNSKNTLYLQMNSLRAEDTAVYYCARDKWYYYPALDYWGQGTLVTVSS VL: DIQMTQSPSSLSASVGDRVTITCRASQSISSYLNWYQQKPGKAPKLLIYAASSLQSGVPSRFSGSGSGTDFTLTISSLQPEDFATYYCLQVYRSPLTFGGGTKVEIK"
2,binds,"R13 (antibody, V domains shown) VH: QVQLVESGGGLVQPGGSLRLSCAASGFTFSYYDIQWVRQAPGKGLEWVSSISPSGQSTYYRREVKGRFTISRDNSKNTLYLQMNSLRAEDTAVYYCARRTGREYGGGWYFDYWGQGTLVTVSS VL: DIQMTQSPSSLSASVGDRVTITCRASQSISSYLNWYQQKPGKAPKLLIYAASSLQSGVPSRFSGSGSGTDFTLTISSLQPEDFATYYCQQFSRFPLTFGGGTKVEIK"
3,binds,"R11 (antibody, V domains shown) VH: QVQLLESGGGLVQPGGSLRLSCAASGFTFSSYAMSWVRQAPGKGLEWVSAISGSGGSTYYADSVKGRFTISRDNSKNTLYLQMNSLRAEDTAVYYCARDKWYYYPALDYWGQGTLVTVSS VL: DIQMTQSPSSLSASVGDRVTITCRASQSISSYLNWYQQKPGKAPKLLIYAASSLQSGVPSRFSGSGSGTDFTLTISSLQPEDFATYYCQQFSRFPLTFGGGTKVEIK"
4,binds,"R8 (antibody, V domains shown) VH: QVQLQESGPGLVKPSETLSLTCAVSGYSISSGYYWGWIRQPPGKGLEWIGSIYHSGSTYYNPSLKSRVTISVDTSKNQFSLKLSSVTAADTAVYYCARQHSFTRYYGYYYFDYWGQGTTVTVSS VL: DIQMTQSPSSLSASVGDRVTITCRASQSISSYLNWYQQKPGKAPKLLIYAASSLQSGVPSRFSGSGSGTDFTLTISSLQPEDFATYYCLQSDSIPLTFGGGTKVEIK"
